Experiment: Laundry test with SPME GC/MS headspace analysis of wet cotton tracers after laundering
Details: for % increase Ex 1 vs Ex A: headspace of the perfume ingredient on wet cotton tracers; for Headspace above wet cotton tracers, Ex 1 (PQ22): washed with detergent Ex 1 (PQ22); for Headspace above wet cotton tracers, Ex 1 (PQ22) / Headspace above wet cotton tracers, Ex A (nil-PQ22): after fourth wash cycle, SPME GC/MS, 10 min at 65° C.; for Headspace above wet cotton tracers, Ex A (nil-PQ22): washed with detergent Ex A (nil-PQ22)

Row | Molecule | % increase Ex 1 vs Ex A | Headspace above wet cotton tracers, Ex 1 (PQ22) [nmol/L] | Headspace above wet cotton tracers, Ex A (nil-PQ22) [nmol/L]
1 | 3-(3,3-dimethyl-2,3-dihydro-1H-inden-5-yl)propanal mixt. wth 3-(1,1-dimethyl-2,3-dihydro-1H-inden-5-y1)propanal [Neo Hivernal] | −58% | 0.328 | 0.139
2 | C=CCOC(=O)COCCC(C)C [Allyl amyl glycolate, allyl 2-(isopentyloxy)acetate] |  | 0.233 | 4.901
3 | CC1=CCC2CC1C2(C)C (stereo not drawn) [Alpha pinene, 2,6,6-trimethylbicyclo(3.1.1)hept-2-ene] | −33% | 0.909 | 0.605
4 | COc1ccc(C=O)cc1 [Anisic aldehyde, 4-methoxybenzaldehyde] |  | 0.184 | 1.755
5 | CC(=O)OCc1ccccc1 [Benzyl acetate, benzyl acetate] |  | 0.227 | 4.405
6 | COc1ccc2ccccc2c1 [Beta napthol methyl ether, 2-methoxynaphthalene] |  | 9.801 | 19.990
7 | CC(C)=CCCC(C)CCO (stereo not drawn) [Citronellol, 3,7-dimethyloct-6-en-1-ol] |  | 1.244 | 2.582
8 | CC(C)=CCCC(C)CC#N (stereo not drawn) [Citronellyl nitrile, 3,7-dimethyloct-6-enenitrile] |  | 1.498 | 8.338
9 | CC1/C=C/CCCCCCCCCCC(=O)C1 (stereo not drawn) [Delta muscenone, (E)-3-methylcyclopentadec-4-en-1-one] | −27% | 23.019 | 16.689
10 | CCOC(=O)C1OC1(C)c1ccccc1 (stereo not drawn) [Ethyl methyl phenyl glycidate, ethyl 3-methyl-3-phenyloxirane-2-carboxylate] | inf | 0.000 | 0.038
11 | CCOC(=O)C1=C(C)C=CCC1(C)C [Ethyl safranate, ethyl 2,6,6-trimethylcyclohexa-1,3-diene-1-carboxylate] | 26% | 2.207 | 2.777
12 | O=C1CCCCCCCCCCCCCCO1 [Exaltolide total, oxacyclohexadecan-2-one] | −33% | 25.157 | 16.977
13 | CC(C)c1cccc(C(C)CC=O)c1 (stereo not drawn) [Florhydral, 3-(3-isopropylphenyl)butanal] | −60% | 3.660 | 1.455
14 | CCC(=O)OCC(C)(C)OC(C)C1CCCC(C)(C)C1 (stereo not drawn) [Helvetolide, 2-(1-(3,3-dimethylcyclohexyl)ethoxy)-2-methylpropyl propionate] | −50% | 9.425 | 4.732
15 | CC(=O)/C=C/C1=C(C)CCCC1(C)C [Ionone beta, (E)-4-(2,6,6-trimethylcyclohex-1-en-1-yl)but-3-en-2-one] | 18% | 2.299 | 2.72
16 | CCCC(=O)OCCC(C)C [Isoamyl butyrate, isopentyl butyrate] |  | 0.074 | 6.501
17 | C=C(C)C1CC=C(C)C(=O)C1 (stereo not drawn) [Laevo carvone, 2-methyl-5-(prop-1-en-2-yl)cyclohex-2-en-1-one] |  | 1.978 | 11.231
18 | CC(C=O)Cc1ccc(C(C)(C)C)cc1 (stereo not drawn) [Lilial, 3-(4-(tert-butyl)phenyl)-2-methylpropanal] | −55% | 13.175 | 5.941
19 | C=CC(C)(O)CCC=C(C)C (stereo not drawn) [Linalool, 3,7-dimethylocta-1,6-dien-3-ol] | 42% | 1.132 | 1.613
20 | C=CC(C)(CCC=C(C)C)OC(=O)CC (stereo not drawn) [Linalyl propionate, 3,7-dimethylocta-1,6-dien-3-yl propionate] | −50% | 12.559 | 6.315
21 | CC(=O)c1ccc2ccccc2c1 [Methyl Beta-napthyl ketone, 1-(naphthalen-2-yl)ethan-1-one] |  | 0.610 | 2.243
22 | COC(=O)c1ccccc1O [Methyl salicylate, methyl 2-hydroxybenzoate] |  | 2.468 | 25.049
23 | CCCCCCCC=O [Octyl Aldehyde, octanal] | 16% | 2.644 | 3.072
24 | COc1ccc(C)cc1 [Para cresyl methyl ether, 1-methoxy-4-methylbenzene] |  | 0.319 | 44.122
25 | CC(C)(O)CCc1ccccc1 [Phenyl ethyl dimethyl carbinol, 2-methyl-4-phenylbutan-2-ol] |  | 0.036 | 0.434
